Reference: the supplement of paper PMC8728848
The other results are listed elsewhere or left out.

Tests used:
Experiment in all cases: glycan array binding signal (z-score within array); higher = stronger binding
Conditions in all cases: glycan notation: IUPAC condensed, linker removed
[1] = molecular target: GlcNAc(b1-3)Gal(b1-3)GalNAc
In short: (§1)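 Glycan array binding is given as a within-array Z-score, which can be read as non-binding when negative. The arrays, 3228 of them, came from the Consortium for Functional Glycomics database and were retained only where the protein sequence was available. Z-scores were averaged across arrays of the same protein sequence at different concentrations or buffers and across linkers.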

[2] = molecular target: GlcNAc(b1-3)Gal(b1-4)Glc
In short: as §1

[3] = molecular target: GlcNAc(b1-3)Gal(b1-4)GlcNAc
In short: as §1

[4] = molecular target: GlcNAc(b1-3)Gal(b1-4)GlcNAc(b1-2)Man(a1-3)[GlcNAc(b1-3)Gal(b1-4)GlcNAc(b1-2)Man(a1-6)]Man(b1-4)GlcNAc(b1-4)GlcNAc
In short: as §1

[5] = molecular target: GlcNAc(b1-3)Gal(b1-4)GlcNAc(b1-2)Man(a1-3)[GlcNAc(b1-3)Gal(b1-4)GlcNAc(b1-2)Man(a1-6)]Man(b1-4)GlcNAc(b1-4)[Fuc(a1-6)]GlcNAc
In short: as §1

[6] = molecular target: GlcNAc(b1-3)Gal(b1-4)GlcNAc(b1-2)[GlcNAc(b1-3)Gal(b1-4)GlcNAc(b1-6)]Man(a1-6)[GlcNAc(b1-3)Gal(b1-4)GlcNAc(b1-2)Man(a1-3)]Man(b1-4)GlcNAc(b1-4)GlcNAc
In short: as §1

[7] = molecular target: GlcNAc(b1-3)Gal(b1-4)GlcNAc(b1-3)Gal(b1-4)GlcNAc
In short: as §1

[8] = molecular target: GlcNAc(b1-3)Gal(b1-4)GlcNAc(b1-3)Gal(b1-4)GlcNAc(b1-2)Man(a1-3)[GlcNAc(b1-3)Gal(b1-4)GlcNAc(b1-3)Gal(b1-4)GlcNAc(b1-2)Man(a1-6)]Man(b1-4)GlcNAc(b1-4)GlcNAc
In short: as §1

[9] = molecular target: GlcNAc(b1-3)Gal(b1-4)GlcNAc(b1-3)Gal(b1-4)GlcNAc(b1-2)Man(a1-3)[GlcNAc(b1-3)Gal(b1-4)GlcNAc(b1-3)Gal(b1-4)GlcNAc(b1-2)Man(a1-6)]Man(b1-4)GlcNAc(b1-4)[Fuc(a1-6)]GlcNAc
In short: as §1

[10] = molecular target: GlcNAc(b1-3)Gal(b1-4)GlcNAc(b1-3)Gal(b1-4)GlcNAc(b1-2)[GlcNAc(b1-3)Gal(b1-4)GlcNAc(b1-3)Gal(b1-4)GlcNAc(b1-6)]Man(a1-6)[GlcNAc(b1-3)Gal(b1-4)GlcNAc(b1-3)Gal(b1-4)GlcNAc(b1-2)Man(a1-3)]Man(b1-4)GlcNAc(b1-4)[Fuc(a1-6)]GlcNAc
In short: as §1

[11] = molecular target: GlcNAc(b1-3)Gal(b1-4)GlcNAc(b1-3)Gal(b1-4)GlcNAc(b1-3)Gal(b1-4)GlcNAc(b1-2)Man(a1-3)[GlcNAc(b1-3)Gal(b1-4)GlcNAc(b1-3)Gal(b1-4)GlcNAc(b1-3)Gal(b1-4)GlcNAc(b1-2)Man(a1-6)]Man(b1-4)GlcNAc(b1-4)GlcNAc
In short: as §1

[12] = molecular target: GlcNAc(b1-3)Gal(b1-4)GlcNAc(b1-3)Gal(b1-4)GlcNAc(b1-3)Gal(b1-4)GlcNAc(b1-2)Man(a1-3)[GlcNAc(b1-3)Gal(b1-4)GlcNAc(b1-3)Gal(b1-4)GlcNAc(b1-3)Gal(b1-4)GlcNAc(b1-2)Man(a1-6)]Man(b1-4)GlcNAc(b1-4)[Fuc(a1-6)]GlcNAc
In short: as §1

[13] = molecular target: GlcNAc(b1-3)Gal(b1-4)GlcNAc(b1-3)Gal(b1-4)GlcNAc(b1-3)Gal(b1-4)GlcNAc(b1-2)[GlcNAc(b1-3)Gal(b1-4)GlcNAc(b1-3)Gal(b1-4)GlcNAc(b1-3)Gal(b1-4)GlcNAc(b1-6)]Man(a1-6)[GlcNAc(b1-3)Gal(b1-4)GlcNAc(b1-3)Gal(b1-4)GlcNAc(b1-3)Gal(b1-4)GlcNAc(b1-2)Man(a1-3)]Man(b1-4)GlcNAc(b1-4)[Fuc(a1-6)]GlcNAc
In short: as §1

[14] = molecular target: GlcNAc(b1-3)Gal(b1-4)GlcNAc(b1-3)Gal(b1-4)GlcNAc(b1-3)Gal(b1-4)GlcNAc(b1-3)Gal(b1-4)GlcNAc(b1-2)Man(a1-3)[GlcNAc(b1-3)Gal(b1-4)GlcNAc(b1-3)Gal(b1-4)GlcNAc(b1-3)Gal(b1-4)GlcNAc(b1-3)Gal(b1-4)GlcNAc(b1-2)Man(a1-6)]Man(b1-4)GlcNAc(b1-4)GlcNAc
In short: as §1

[15] = molecular target: GlcNAc(b1-3)Gal(b1-4)GlcNAc(b1-3)Gal(b1-4)GlcNAc(b1-3)Gal(b1-4)GlcNAc(b1-3)Gal(b1-4)GlcNAc(b1-2)Man(a1-3)[GlcNAc(b1-3)Gal(b1-4)GlcNAc(b1-3)Gal(b1-4)GlcNAc(b1-3)Gal(b1-4)GlcNAc(b1-3)Gal(b1-4)GlcNAc(b1-2)Man(a1-6)]Man(b1-4)GlcNAc(b1-4)[Fuc(a1-6)]GlcNAc
In short: as §1

[16] = molecular target: GlcNAc(b1-3)Gal(b1-4)GlcNAc(b1-3)Gal(b1-4)GlcNAc(b1-3)Gal(b1-4)GlcNAc(b1-3)Gal(b1-4)GlcNAc(b1-2)[GlcNAc(b1-3)Gal(b1-4)GlcNAc(b1-3)Gal(b1-4)GlcNAc(b1-3)Gal(b1-4)GlcNAc(b1-3)Gal(b1-4)GlcNAc(b1-6)]Man(a1-6)[GlcNAc(b1-3)Gal(b1-4)GlcNAc(b1-3)Gal(b1-4)GlcNAc(b1-3)Gal(b1-4)GlcNAc(b1-3)Gal(b1-4)GlcNAc(b1-2)Man(a1-3)]Man(b1-4)GlcNAc(b1-4)[Fuc(a1-6)]GlcNAc
In short: as §1

[17] = molecular target: GlcNAc(b1-3)Gal(b1-4)GlcNAc(b1-3)Gal(b1-4)GlcNAc(b1-3)GalNAc
In short: as §1

[18] = molecular target: GlcNAc(b1-3)Gal(b1-4)GlcNAc(b1-3)GalNAc
In short: as §1

[19] = molecular target: GlcNAc(b1-3)Gal(b1-4)GlcNAc(b1-3)[GlcNAc(b1-3)Gal(b1-4)GlcNAc(b1-3)]GalNAc
In short: as §1

[20] = molecular target: GlcNAc(b1-3)Gal(b1-4)GlcNAc(b1-6)[Gal(b1-3)]GalNAc
In short: as §1

[21] = molecular target: GlcNAc(b1-3)Gal(b1-4)GlcNAc(b1-6)[GlcNAc(b1-3)Gal(b1-3)]GalNAc
In short: as §1

[22] = molecular target: GlcNAc(b1-3)Gal(b1-4)GlcNAc(b1-6)[GlcNAc(b1-3)]Gal(b1-4)GlcNAc
In short: as §1

[23] = molecular target: GlcNAc(b1-3)GalNAc
In short: as §1

[24] = molecular target: GlcNAc(b1-3)Man
In short: as §1

[25] = molecular target: GlcNAc(b1-3)[GlcNAc(b1-4)][GlcNAc(b1-6)]GlcNAc
In short: as §1

[26] = molecular target: GlcNAc(b1-3)[GlcNAc(b1-6)]Gal(b1-4)GlcNAc
In short: as §1

[27] = molecular target: GlcNAc(b1-3)[GlcNAc(b1-6)]GalNAc
In short: as §1

[28] = molecular target: GlcNAc(b1-4)Gal(b1-4)GlcNAc
In short: as §1

[29] = molecular target: GlcNAc(b1-4)GlcNAc
In short: as §1

[30] = molecular target: GlcNAc(b1-4)GlcNAc(b1-4)GlcNAc
In short: as §1

[31] = molecular target: GlcNAc(b1-4)GlcNAc(b1-4)GlcNAc(b1-4)GlcNAc(b1-4)GlcNAc
In short: as §1

[32] = molecular target: GlcNAc(b1-4)GlcNAc(b1-4)GlcNAc(b1-4)GlcNAc(b1-4)GlcNAc(b1-4)GlcNAc
In short: as §1

[33] = molecular target: GlcNAc(b1-4)[GlcNAc(b1-6)]GalNAc
In short: as §1

[34] = molecular target: GlcNAc(b1-6)Gal(b1-4)GlcNAc
In short: as §1

[35] = molecular target: GlcNAc(b1-6)GalNAc
In short: as §1

[36] = molecular target: GlcNAc6S(b1-3)Gal(b1-4)GlcNAc
In short: as §1

[37] = molecular target: Kdn(a2-3)Gal(b1-3)GalNAc
In short: as §1

B1: SP15308C-bot-338-23-338 (Bacteroides ovatus) (protein)
chain: DEWTDEQFKQLISFKTQPGGWGVTDVHVRYANSAKYTYNLPVLVSGSTDNTDDRLVSFSLRDDTLDILNFEKFGNRPELYFRELPQKYYSFPKELTIPAGQSHALLPIEFSLDGLDDSQKWALPLKVCEDANGTYAVNPRKYYRTAVLRPILFNEFSGRFSGSSLLGTMAGESDIKFSSTEIKLNVVTDSIVFFYAGQRTEDYEDRINYKVFLQFTGDKVDSKKDLYKMKIWAENEKLKFNSYSTPTYKVSSEMDATKTYLKHTYIVISDIDFDFVDYTSVPNYEIEYNMKGGLSVSRDLDTRKPDEDQGSDSKWW
In the case of B1, the “glycan array binding signal (z-score)” value [1] is reported as 0.097, the “glycan array binding signal (z-score)” value [2] is reported as -0.72 and the “glycan array binding signal (z-score)” value [3] is reported as -0.065. The “glycan array binding signal (z-score)” value [4] was -0.303, the “glycan array binding signal (z-score)” value [5] was 0.19 and the “glycan array binding signal (z-score)” value [6] was 0.124. The “glycan array binding signal (z-score)” value [7] was -0.336, the “glycan array binding signal (z-score)” value [8] was 2.87 and the “glycan array binding signal (z-score)” value [9] was -0.126. The “glycan array binding signal (z-score)” value [10] was 0.772, the “glycan array binding signal (z-score)” value [11] was 0.104 and the “glycan array binding signal (z-score)” value [12] was 0.13. For the same binder, the “glycan array binding signal (z-score)” value [13] was 1.82, the “glycan array binding signal (z-score)” value [14] was 0.047 and the “glycan array binding signal (z-score)” value [15] was 0.146. For the same binder, the “glycan array binding signal (z-score)” value [16] was 1.04, the “glycan array binding signal (z-score)” value [17] was -0.324 and the “glycan array binding signal (z-score)” value [18] was -0.131. For the same binder, the “glycan array binding signal (z-score)” value [19] was 0.031, the “glycan array binding signal (z-score)” value [20] was -0.292 and the “glycan array binding signal (z-score)” value [21] was 0.059. The “glycan array binding signal (z-score)” value [22] was -0.109, the “glycan array binding signal (z-score)” value [23] was -0.138 and the “glycan array binding signal (z-score)” value [24] was -0.56. The “glycan array binding signal (z-score)” value [25] was -0.055, the “glycan array binding signal (z-score)” value [26] was -0.145 and the “glycan array binding signal (z-score)” value [27] was -0.487. The “glycan array binding signal (z-score)” value [28] was -0.205, the “glycan array binding signal (z-score)” value [29] was -0.453 and the “glycan array binding signal (z-score)” value [30] was -0.098. The “glycan array binding signal (z-score)” value [31] was -0.666, the “glycan array binding signal (z-score)” value [32] was -0.503 and the “glycan array binding signal (z-score)” value [33] was 0.064. The “glycan array binding signal (z-score)” value [34] was -0.182, the “glycan array binding signal (z-score)” value [35] was -0.218 and the “glycan array binding signal (z-score)” value [36] was -0.422. The “glycan array binding signal (z-score)” value [37] was -0.034.
